{
  "source": "patent US6468476B1",
  "about": "“Methods for using-co-regulated genesets to enhance detection and classification of gene expression patterns” (Rosetta Inpharmatics, Inc., priority 1998, dated 2002)",
  "origin": "cited, not measured here",
  "tested_on": "Tet promoter",
  "conditions": "Tet promoter in yeast; cited from earlier work",
  "note": "At least one compound was matched to its structure with a doubt left.",
  "data": [
    {"smiles": "C[C@H]1c2cccc(O)c2C(=O)C2=C(O)[C@]3(O)C(=O)C(C(N)=O)=C(O)[C@@H](N(C)C)[C@@H]3[C@@H](O)[C@@H]21", "note": "[doxycycline]", "values": [
      {"measurement": "Level that gives maximal repression of promoter activity", "value": 10, "unit": "micrograms/ml"}
    ]}
  ]
}
